Data on one substance can be found in paper PMC5470874.

These are yes or no findings as the source states them, for the method shown. In cells and extracts the contact can be indirect. Some entries that bind do so weakly or less than the wild type.

The experiment has as its target T1, Matrin 3 (human (endogenous in HCT116)) (UniProt P43243).
T1 sequence: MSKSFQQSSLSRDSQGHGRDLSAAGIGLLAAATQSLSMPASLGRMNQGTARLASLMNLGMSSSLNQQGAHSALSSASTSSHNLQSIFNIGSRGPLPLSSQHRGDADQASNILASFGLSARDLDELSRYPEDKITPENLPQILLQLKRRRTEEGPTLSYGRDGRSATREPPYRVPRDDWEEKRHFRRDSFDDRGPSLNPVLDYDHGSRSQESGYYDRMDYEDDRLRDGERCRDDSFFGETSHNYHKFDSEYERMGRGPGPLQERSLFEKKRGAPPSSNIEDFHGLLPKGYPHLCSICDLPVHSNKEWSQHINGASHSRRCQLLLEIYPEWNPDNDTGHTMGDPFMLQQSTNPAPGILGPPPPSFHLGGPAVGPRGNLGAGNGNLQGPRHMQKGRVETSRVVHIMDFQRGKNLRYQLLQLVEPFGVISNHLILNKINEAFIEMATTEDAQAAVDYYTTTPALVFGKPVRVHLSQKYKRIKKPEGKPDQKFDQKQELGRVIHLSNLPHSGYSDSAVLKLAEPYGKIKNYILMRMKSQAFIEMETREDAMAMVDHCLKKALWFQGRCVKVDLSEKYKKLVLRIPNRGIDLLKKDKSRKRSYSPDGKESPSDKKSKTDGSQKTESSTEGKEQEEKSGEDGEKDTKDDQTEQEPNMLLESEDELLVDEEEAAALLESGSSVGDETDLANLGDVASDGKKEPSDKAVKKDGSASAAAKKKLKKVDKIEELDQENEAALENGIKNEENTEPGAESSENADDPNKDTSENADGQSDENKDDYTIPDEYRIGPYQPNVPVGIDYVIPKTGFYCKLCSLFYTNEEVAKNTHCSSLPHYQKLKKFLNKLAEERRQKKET
Briefly: co-IP; Matrin 3 antibody or IgG on protein A/G magnetic beads, 500 µg HCT116 whole cell lysate in RIPA buffer, 4 hr at 4°C; cells untreated or treated with 5-FU (100 µM) for 24 hr; beads untreated or treated with RNase A and DNase for 30 min at 37°C; immunoblot for p53 (DO-1). In general terms: Immunoblotting shows a protein as a band on a membrane.

Consider p53 (from UniProt P04637 1-393), for which the binding entry is on record as “binds”.
